# Experimental data as given in the supplement of paper PMC5407854, “Inhibitor of ppGalNAc-T3-mediated O-glycosylation blocks cancer cell invasiveness and lowers FGF23 levels” (eLife, 2017).
# Some of the results follow. Most entries show no effect beyond the scatter of the controls.
# Tested on: ppGalNAc-T3 sensor
# Assay: T3 sensor activation Q score (MG/GFP ratio z-score vs DMSO controls) (SD units); higher = more sensor activation (inhibition of ppGalNAc-T3 glycosylation)
# Settings: HEK293 sensor cells; 10 µM; 6 h
# Description: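 Cells were treated with compound at 10 uM for 6 h, then MG/GFP ratio was read by flow cytometry (10,000 cells per well, duplicate wells). Q = (R - R_neg)/SD_neg relative to DMSO vehicle controls; the signal rises when the glycosyltransferase is inhibited.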
row,Compound,T3 sensor activation Q score
1,COc1cccc(N2CCN(Cc3ccc(Br)cc3)CC2)c1,0.435
2,COc1ccc(/C=C/C2=CCN(C)CC2)cc1,0.125
3,O=[N+]([O-])c1ccc(N2CCN(Cc3ccc(Cl)cc3)CC2)cc1,0.265
4,COc1ccc(CN2CCN(C)CC2)cc1,0.395
5,CCN1CCN(Cc2cc(Br)c(OC)cc2OC)CC1,-0.105
6,CCOc1ccccc1N1CCN(Cc2ccc(OC)cc2)CC1,0.11
7,CN1CCN(Cc2ccco2)CC1,0.33
8,Cc1ccccc1N1CCN(Cc2cccc([N+](=O)[O-])c2)CC1,0.25
9,COc1ccc(O)c(CN2CCN(c3cc(C)ccc3C)CC2)c1,-0.24
10,Cc1cccc(CN2CCN(c3ccccc3C)CC2)c1,0.435
11,COc1ccccc1CN1CCN(c2ccccc2OC)CC1,0.245
12,CCOc1ccccc1N1CCN(Cc2cccc(OC)c2)CC1,0.18
13,Cc1ccccc1N1CCN(Cc2ccccc2)CC1,-0.46
14,O=[N+]([O-])c1ccc(CN2CCN(c3ccccc3)CC2)cc1,0.75
15,Fc1ccc(N2CCN(Cc3cccc(Br)c3)CC2)cc1,0.205
16,COc1ccc(CN2CCN(c3ccccc3C)CC2)c(OC)c1,0.935
17,COc1ccccc1N1CCN(Cc2cccc([N+](=O)[O-])c2)CC1,0.45
18,COc1cccc(CN2CCN(c3ccccc3)CC2)c1,-0.415
19,Cc1ccc(CN2CCN(c3ccccc3)CC2)c(C)c1,-0.15
20,O=[N+]([O-])c1ccc(N2CCN(Cc3ccc(O)cc3)CC2)cc1,-0.23

# A draw from above in order of SMILES length, ascending:
row,Compound,T3 sensor activation Q score
18,COc1cccc(CN2CCN(c3ccccc3)CC2)c1,-0.415
17,COc1ccccc1N1CCN(Cc2cccc([N+](=O)[O-])c2)CC1,0.45
3,O=[N+]([O-])c1ccc(N2CCN(Cc3ccc(Cl)cc3)CC2)cc1,0.265

# (cont.)

row,Compound,T3 sensor activation Q score
1,Cc1cccc(N2CCN(Cc3cccc(F)c3)CC2)c1C,0.65
2,CCOc1ccccc1N1CCN(Cc2ccccc2C)CC1,0.5
3,Cc1ccccc1CN1CCN(c2ccc([N+](=O)[O-])cc2)CC1,-0.005
4,Cc1ccccc1CN1CCN(c2ccccc2C)CC1,0.2
5,CCN1CCN(Cc2ccc(Cl)cc2)CC1,0.08
6,Cc1[nH]c2ccc(C(=O)O)cc2c1CCN,1.15
7,COc1ccc(CCNC2CCCC(C)C2)cc1 (stereo not given),1.25
8,CCOc1ccccc1CN1CCN(c2ccc(Cl)cc2)CC1,0.28
9,Clc1cccc(N2CCN(Cc3ccc4c(c3)OCO4)CC2)c1,0.07
10,CCN1CCN(Cc2cccc(Br)c2)CC1,-0.48
11,COc1ccccc1N1C(=O)CC(=O)NC1=O,-0.41
12,COc1cc(CN2CCN(C)CC2)cc(OC)c1,0.105
13,O=[N+]([O-])c1ccc(N2CCN(Cc3ccc(Cl)cc3Cl)CC2)cc1,-0.145
14,Cc1ccccc1CN1CCN(c2ccccc2F)CC1,0.545
15,COc1ccc(CN2CCN(c3ccccc3F)CC2)c(C)c1C,1
16,CCN1CCN(Cc2cc(F)ccc2F)CC1,1.55
17,Oc1ccc(CN2CCN(c3cccc(Cl)c3)CC2)cc1,-0.805
18,Fc1ccc(CN2CCN(c3ccccc3)CC2)cc1Br,0.42
19,O=[N+]([O-])c1ccccc1CN1CCN(c2cccc(Cl)c2)CC1,0.125
20,COc1ccc(N2CCN(Cc3cccc([N+](=O)[O-])c3)CC2)cc1,-0.285
